Data taken from PMC10517209.
Results are given in words; binding and its absence hold for the method and conditions named. In cells and extracts the contact can be indirect. Some binding calls cover weakened binding; strength is not graded here.

Chains of the proteins cited; added tags and fusions are not shown.
UniProt P08670: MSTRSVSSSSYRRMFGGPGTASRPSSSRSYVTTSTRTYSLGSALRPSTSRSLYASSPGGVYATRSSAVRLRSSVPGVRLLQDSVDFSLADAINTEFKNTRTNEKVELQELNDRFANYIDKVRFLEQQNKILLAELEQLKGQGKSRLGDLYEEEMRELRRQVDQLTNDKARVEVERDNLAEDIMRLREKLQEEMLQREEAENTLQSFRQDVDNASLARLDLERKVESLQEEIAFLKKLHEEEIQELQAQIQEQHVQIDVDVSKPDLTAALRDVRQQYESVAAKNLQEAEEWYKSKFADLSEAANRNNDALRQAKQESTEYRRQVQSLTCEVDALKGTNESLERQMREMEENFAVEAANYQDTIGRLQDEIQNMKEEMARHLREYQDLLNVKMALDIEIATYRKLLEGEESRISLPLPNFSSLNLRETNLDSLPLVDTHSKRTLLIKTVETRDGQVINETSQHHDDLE
UniProt Q86TM6: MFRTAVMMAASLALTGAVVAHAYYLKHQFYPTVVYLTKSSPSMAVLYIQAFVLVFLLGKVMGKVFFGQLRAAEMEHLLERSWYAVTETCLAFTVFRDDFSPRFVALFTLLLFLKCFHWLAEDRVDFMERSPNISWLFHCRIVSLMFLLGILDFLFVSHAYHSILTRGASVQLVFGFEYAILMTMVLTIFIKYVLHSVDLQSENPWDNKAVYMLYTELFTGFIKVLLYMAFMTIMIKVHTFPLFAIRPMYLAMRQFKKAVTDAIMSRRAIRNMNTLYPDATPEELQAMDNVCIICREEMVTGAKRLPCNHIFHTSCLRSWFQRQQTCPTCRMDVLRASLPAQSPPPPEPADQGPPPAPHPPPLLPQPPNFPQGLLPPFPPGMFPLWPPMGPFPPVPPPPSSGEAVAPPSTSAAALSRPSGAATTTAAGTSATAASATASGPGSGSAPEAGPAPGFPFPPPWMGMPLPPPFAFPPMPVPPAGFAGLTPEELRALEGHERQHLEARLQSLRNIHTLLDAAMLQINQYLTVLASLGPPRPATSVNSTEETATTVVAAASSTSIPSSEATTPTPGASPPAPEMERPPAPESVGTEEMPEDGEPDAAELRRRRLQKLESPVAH

Molecular target: Vimentin (human (endogenous in C28/I2)) (UniProt P08670)
Test: co-IP; cells treated with 20 uM MG132 for 8 h, then lysed; Pierce Classic Magnetic IP Kit with antibodies (1:100) to FLAG or Vimentin; western blot; control cells and cells with circARPC1B overexpression or knockdown

## E3 ligase synoviolin 1 (SYVN1) (from UniProt Q86TM6 1-617) (enzyme)
  binding: binds
